Repeats are few or missing, and single values can be far off.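 All cells are established human bladder cancer lines, one derived from a patient-derived xenograft. A luminescent ATP assay measured viability as percent inhibition relative to vehicle across seven dilutions. The paper rates scores above 59 very active, 30–59 active, 21–29 semi-active, 9–20 low active, below 9 inactive.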
Legend:
Assay in all cases: drug sensitivity score DSS3 (score 0-100); higher = more sensitive; extreme values may be limits of the assay
Details in all cases: culture: 3D, ultra-low attachment; treatment time: 5 days
[1] = tested on: 5637
[2] = tested on: BC8149
[3] = tested on: J82
[4] = tested on: SW780
[5] = tested on: T-24
[6] = tested on: TCCSUP
[7] = tested on: UM-UC-12
[8] = tested on: UM-UC-14
[9] = tested on: UM-UC-15
[10] = tested on: UM-UC-17
[11] = tested on: UM-UC-18
[12] = tested on: UM-UC-3
[13] = tested on: UM-UC-5
[14] = tested on: UM-UC-6
[15] = tested on: UM-UC-9
[16] = tested on: SCaBER
[17] = tested on: UM-UC-1

Structure (SMILES)	drug sensitivity score DSS3 [1]	drug sensitivity score DSS3 [2]	drug sensitivity score DSS3 [3]	drug sensitivity score DSS3 [4]	drug sensitivity score DSS3 [5]	drug sensitivity score DSS3 [6]	drug sensitivity score DSS3 [7]	drug sensitivity score DSS3 [8]	drug sensitivity score DSS3 [9]	drug sensitivity score DSS3 [10]	drug sensitivity score DSS3 [11]	drug sensitivity score DSS3 [12]	drug sensitivity score DSS3 [13]	drug sensitivity score DSS3 [14]	drug sensitivity score DSS3 [15]	drug sensitivity score DSS3 [16]	drug sensitivity score DSS3 [17]
O=C1Nc2ccccc2/C1=C1/Nc2ccccc2C1=O [Indirubin] (max dose 10000 nM)	0	20	0	0	0	0	0	0	0	2.71	6.38	0	0	1.13	0	–	–
O=C(NCCCNc1nc(Nc2cccc(NC(=O)N3CCCC3)c2)ncc1I)c1cccs1 [BX-795] (max dose 10000 nM)	0.513	0.127	0	0	0	0.105	0	0.0555	0	0.109	0.125	1.43	0.376	0	0	–	–
Nc1nc(NCCc2ccc(O)cc2)nc2nc(-c3ccco3)nn12 (max dose 10000 nM)	0	–	0	0.00146	0	0	0	0	0	0	–	0.0642	0	1.38	0	0.1	0
C[C@@H]1COCCN1c1cc(-c2ccnn2C)c2ccnc(-c3ccn[nH]3)c2n1 (max dose 10000 nM)	43	22.2	5.39	3.95	0	58.4	1.53	28.2	0	30	32.9	8.15	0	45.5	9.28	–	37.5
Cc1cc(Nc2cc(N3CCN(C)CC3)nc(/C=C/c3ccccc3)n2)n[nH]1 [ENMD-2076] (max dose 10000 nM)	11.1	4.8	1.45	0	1.63	15.2	0.545	3.18	0	3.12	1.91	1.13	0	0	0	–	3.54
CCOc1cc(C(C)(C)C)ccc1C1=N[C@@](C)(c2ccc(Cl)cc2)[C@@](C)(c2ccc(Cl)cc2)N1C(=O)N1CCN(CCCS(C)(=O)=O)CC1 [RG-7112] (max dose 10000 nM)	0.335	0	0	0.132	0.399	0	5.6	0	0	0	0	0	0	0	0	–	0
O=c1[nH]nc(Sc2ncc([N+](=O)[O-])s2)n1-c1ccc2c(c1)OCCO2 [BI-78D3] (max dose 10000 nM)	1.12	–	0	–	1.92	1.22	2	0.396	1.2	0	1.6	3.05	0.105	2.28	0.371	1.24	2

Reference: the supplement of paper PMC7646827
